According to PubChem BioAssay AID1347075 (National Center for Advancing Translational Sciences (NCATS), 2019):
The whole screen tested about 400,000 compounds, of which about 5,500 (1.4%) were called active. This list was built around the results that the source calls inconclusive (neither active nor inactive); the mix of calls is not that of the screen. Calls follow the shape of the dose curve; as a rule, active = well fitted cell-killing curve with a large enough effect; inconclusive = small, poorly fitted or top-dose-only effect, or effect the other way; inactive = flat fitted curve, though single readings scatter. Potencies beside an inconclusive call are fits to weak or partial responses and may not hold up.
% is scaled to controls: 0 for no effect and ±100 for the full control effect; potency is read from the fitted curve at half-maximal effect.

Experiment: qHTS assay for MDR1-selective chemotherapeutics: Primary screen using the parental adenocarcinoma cell KB-3-1; also: nearly all actives have a fitted effect of over 60% in size
Conditions: KB-3-1 viability, CellTiter-Glo ATP luminescence, 72 h; activity change, negative = cytotoxic: at 46.1 µM (top of the series)
Procedure, shortened: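 Viability of parental KB-3-1 cells, measured by CellTiter-Glo luminescence, followed a 72 h incubation at 37 °C with pinned compounds in phenol-red-free DMEM containing 10% FBS.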
For `CC1CCN(Cc2c(C(=O)O)nnn2-c2nonc2N)CC1`, the “activity change, negative = cytotoxic” value was inactive: 2.9%. For `CCN(CC)c1nc(Nc2ccccc2)nc(Oc2ccc(C(=O)OC)cc2)n1`, the Potency was inconclusive: 20.6 µM [cytotoxic, partial curve, poor fit]. With `CCCCC12CN3CC(C)(CN(C1)C3c1ccc([N+](=O)[O-])o1)C2=O` (stereo not drawn) the “activity change, negative = cytotoxic” value was inactive: 0.528%. With `CC(C)Cn1c(N)c(C(=O)COC(=O)c2ccccc2C(=O)c2ccccc2)c(=O)n(C)c1=O` the Potency was inconclusive: 29.1 µM [cytotoxic, single point]. In the case of `C[C@H](CO)N1C[C@H](C)[C@H](CN(C)S(=O)(=O)c2cccc(F)c2)OCc2ccccc2-c2c(n(C)c3ccccc23)C1=O`, the Potency is reported as active: 23.1 µM. In the case of `O=C(COC(=O)CCc1nc2ccccc2c(=O)[nH]1)NC(=O)NC1CCCC1`, the activity change, negative = cytotoxic is reported as inconclusive: -17%. For `O=C(c1ccc2c(Cl)c3c(nc2c1)CCCC3)N1CCN(c2cccc(Cl)c2)CC1`, the Potency was inconclusive: 29.1 µM [cytotoxic, single point]. For `Cc1ccc(-c2c(C(=O)NCCc3ccc(Cl)cc3)oc(=O)c3ccccc23)cc1`, the Potency was inconclusive: 25.9 µM [cytotoxic, partial curve, poor fit]. With `Nc1ccn([C@@H]2O[C@H](C(=O)N3CCCN(Cc4ccccc4F)CC3)[C@@H](O)[C@H]2O)c(=O)n1` the “activity change, negative = cytotoxic” value was inactive: 23.8%. For `COc1ccc(C(=O)NNC(=S)NC(=O)c2ccco2)cc1`, the Potency was inconclusive: 29.1 µM [cytotoxic, single point]. For `O=C1C=CC(=O)N1c1ccc(N2CCCCC2)cc1`, the Potency was inconclusive: 29.1 µM [cytotoxic, single point]. For `O=c1c2cc(-c3ccccc3)sc2ncn1/N=C/c1ccco1`, the Potency was inconclusive: 29.1 µM [cytotoxic, single point]. For `OCC1(CCc2ccccc2)CCN(Cc2ccc(OC(F)F)cc2)CC1`, the “activity change, negative = cytotoxic” value was inactive: -14.9%. In the case of `Cc1cc(NC(=O)C2CCCCC2)n(-c2nc3ccccc3[nH]2)n1`, the Potency is reported as inconclusive: 18.4 µM [cytotoxic, single point]. With `O=C(COc1ccccc1Cl)Nc1ccc(C(=O)N2CCCCC2)cc1` the Potency was inconclusive: 18.4 µM [cytotoxic, partial curve]. In the case of `NCCCNc1ncnc2ccc(-c3ccc4c(c3)OCO4)cc12`, the activity change, negative = cytotoxic is reported as inconclusive: -22%. For `COc1ccccc1N1CCN(C(c2ccccc2)c2nnnn2Cc2ccccc2)CC1` (stereo not drawn), the Potency was inconclusive: 20.6 µM [cytotoxic, single point]. In the case of `Cc1cccc2cc(CN(CCCO)C(=O)Nc3ccc(Cl)cc3)c(=O)[nH]c12`, the Potency is reported as inconclusive: 29.1 µM [cytotoxic, single point]. With `Fc1cccc(Cl)c1Cn1nnc2c(-n3ccnc3)ncnc21` the Potency was inconclusive: 16.4 µM [rising, partial curve, poor fit]. For `COc1cccc(C(=O)c2cn(CC(=O)Nc3cccc(Cl)c3C)c3nc(C)ccc3c2=O)c1`, the “activity change, negative = cytotoxic” value was inactive: -1.04%. In the case of `CCOc1ccc2[nH]c(=O)c(CN(CCN3CCCC3)C(=S)Nc3ccccc3OCC)cc2c1`, the Potency is reported as inconclusive: 29.1 µM [cytotoxic, single point]. For `Cc1ccc(Cn2c(=N)c(C(=O)NCc3ccco3)cc3c(=O)n4ccccc4nc32)cc1`, the Potency was inconclusive: 20 µM [cytotoxic, partial curve, poor fit]. With `Cc1ccc(NC(=O)N2CCc3c([nH]c4ccccc34)C2c2ccccc2F)c(Cl)c1` (stereo not drawn) the Potency was inconclusive: 23.1 µM [cytotoxic, single point]. With `Cc1ccc(C(C)C)cc1OCC(=O)Nc1nnc(C2CC2)s1` the Potency was inconclusive: 4.61 µM [cytotoxic, full curve]. In the case of `CCCCCCCCOC(=O)C(NC(=O)CCC(=O)Nc1ccc(S(N)(=O)=O)cc1)C(O)c1ccccc1` (stereo not drawn), the Potency is reported as inconclusive: 18.4 µM [cytotoxic, single point]. In the case of `C[C@@H]1CN([C@H](C)CO)C(=O)CCCn2nncc2CO[C@@H]1CN(C)C(=O)CCC(F)(F)F`, the Potency is reported as active: 1.64 µM. In the case of `Cc1cccc(-c2n[nH]nc2C2=CC(=O)CC(C)(C)C2)c1`, the Potency is reported as inconclusive: 4.61 µM [cytotoxic, partial curve, poor fit]. In the case of `COc1ccc(CNS(=O)(=O)c2ccc3c(c2)C(C)(C)C(=O)N3C)cc1OC`, the “activity change, negative = cytotoxic” value is reported as inactive: -5.25%. For `O=C(c1ccc(NS(=O)(=O)c2ccc(F)cc2)cc1)N1CCC1`, the “activity change, negative = cytotoxic” value was inactive: -2.65%. For `Cc1ccc(NC(=O)c2nc[nH]c2C(=O)N[C@@H](CCCCNC(=O)OC(C)(C)C)C(=O)OC(C)(C)C)cc1`, the Potency was inconclusive: 29.1 µM [cytotoxic, single point]. In the case of `CC(C)OCCCNc1ncnc2c1cnn2-c1ccccc1`, the “activity change, negative = cytotoxic” value is reported as inactive: 10.3%. With `Cc1ccccc1Nc1nc(N)nc(COC(=O)c2cccn2C)n1` the “activity change, negative = cytotoxic” value was inactive: -0.85%. In the case of `COc1cccc(N2CC(=O)N(NC(=O)CSc3nc(C)cc(C)c3C#N)CC2=O)c1`, the Potency is reported as inconclusive: 29.1 µM [rising, single point]. In the case of `CCN(c1ccccc1)S(=O)(=O)c1ccc(OC)c(NC(=O)Cc2ccccc2OC)c1`, the Potency is reported as inconclusive: 8.2 µM [cytotoxic, partial curve]. For `O=C(NC1CC1)C1Nc2ccc(OC(F)(F)F)cc2C2C=CCC12` (stereo not drawn), the Potency was inconclusive: 29.1 µM [cytotoxic, single point]. For `CC(=O)N1CCc2c(sc(NC(=O)CSc3ccc(C)cc3)c2-c2nc3ccccc3s2)C1`, the “activity change, negative = cytotoxic” value was inactive: -4.98%. For `CC(=O)c1c(C)[nH]c(C(=O)Nc2nc(C)cs2)c1C`, the Potency was inconclusive: 16.4 µM [rising, single point]. For `CCOc1ccc(NC(=O)COc2cccc3c2CCN(Cc2cccnc2)C3=O)cc1`, the activity change, negative = cytotoxic was inconclusive: -34.7% [cytotoxic]. With `CCOC(=O)c1sc2nc(OCc3cccnc3)cc(C)c2c1N` the “activity change, negative = cytotoxic” value was inactive: 4.22%. With `COc1ccc(OC)c(CCNc2ncnc3onc(C)c23)c1` the Potency was inconclusive: 18.4 µM [cytotoxic, partial curve, poor fit]. For `O=C(c1ccc(Cl)cc1)N1CCN(S(=O)(=O)/C=C/c2ccccc2)CC1`, the Potency was active: 23.1 µM. For `O=C(NC1(C(F)(F)F)N=C(c2ccccc2)N(C2CCCCC2)C1=O)c1ccccc1F` (stereo not drawn), the activity change, negative = cytotoxic was inconclusive: -11.6%. With `CC(=O)c1c(C)[nH]c(C(=O)OCc2ccc(Br)cc2)c1C` the Potency was inconclusive: 20.6 µM [cytotoxic, partial curve, poor fit]. With `COc1ccc(NS(=O)(=O)c2cc(-c3cnc(C4CC4)o3)ccc2C)cc1` the Potency was active: 13 µM. In the case of `CCCCCCCCN1[C@@H](CC(=O)O)c2ccc(/C=C/C(=O)O)cc2S1(=O)=O`, the “activity change, negative = cytotoxic” value is reported as inactive: 5.42%. For `Cc1cccc(NC(=O)COC(=O)c2cccc(S(=O)(=O)N3CCCCCC3)c2)c1`, the “activity change, negative = cytotoxic” value was inactive: 5.56%. In the case of `CCNC(=O)C1CCCc2c1[nH]c1ccc(Cl)cc21` (stereo not drawn), the Potency is reported as inconclusive: 2.59 µM [cytotoxic, partial curve, poor fit]. In the case of `CN(Cc1ccccc1)C(=O)c1ccc2c(c1)N(Cc1ccc(Cl)cc1)C(=O)c1ccccc1S2=O` (stereo not drawn), the Potency is reported as active: 16.4 µM. In the case of `COc1ccc(Cn2c(C3CCCCC3)nc3c(c(=O)c4ccccc4n3C)c2=O)cc1`, the “activity change, negative = cytotoxic” value is reported as inactive: -15.7%. In the case of `O=C(NCc1nnc(SCc2ccc(F)cc2)n1-c1ccc(F)cc1)C12CC3CC(CC(C3)C1)C2`, the Potency is reported as active: 23.1 µM. With `C#Cc1ccc(NC(=O)C2(C)CCN2C(=O)C2(c3ccccc3)CCCC2)cc1` (stereo not drawn) the Potency was inconclusive: 29.1 µM [cytotoxic, single point]. In the case of `Fc1ccc(/C=C/c2ccc3ccccc3n2)cc1`, the Potency is reported as active: 11.6 µM. In the case of `O=[N+]([O-])/C=C\c1ccc(N2CCOCC2)cc1`, the Potency is reported as inconclusive: 18.4 µM [cytotoxic, single point]. For `CCc1ccccc1N1CC(c2nc3ccccc3n2CCC2CCCCC2)CC1=O` (stereo not drawn), the Potency was inconclusive: 2.06 µM [cytotoxic, partial curve]. In the case of `O=C(C1CCCCC1)N1C[C@H](n2cc(-c3ccc(F)cc3)nn2)[C@@H](O)C[C@@H]1c1ccc(Cl)cc1`, the Potency is reported as inconclusive: 18.4 µM [cytotoxic, single point]. In the case of `COc1ccc(CCNC(=S)Nc2ccc(C(C)C)cc2)cc1`, the Potency is reported as inconclusive: 18.4 µM [cytotoxic, single point]. In the case of `O=C1CN(C(=O)COC(=O)c2ccc(C(F)(F)F)cc2)c2ccccc2N1`, the activity change, negative = cytotoxic is reported as inconclusive: -51.4%. With `COc1ccccc1N(CC(=O)NC(C)(C)C)C(=O)CCC(=O)Nc1nccs1` the “activity change, negative = cytotoxic” value was inactive: 0.455%. In the case of `CC(N=C1NS(=O)(=O)c2ccccc21)C(=O)NCc1ccc2c(c1)OCO2` (stereo not drawn), the “activity change, negative = cytotoxic” value is reported as inactive: 16.4%. In the case of `COc1ccc(/C=N/NC(=O)CCSc2nc3ccccc3s2)cc1`, the Potency is reported as inconclusive: 25.9 µM [cytotoxic, single point]. For `Fc1ccc(CNc2ccc(N3CCN(Cc4ccccc4)CC3)cc2)cc1`, the Potency was inconclusive: 29.1 µM [cytotoxic, single point]. In the case of `Cn1cc(-c2csc(C(O)(c3ccccc3)C(F)(F)F)n2)cn1` (stereo not drawn), the “activity change, negative = cytotoxic” value is reported as inactive: 0%. For `Cc1ccc2c(c1)N(S(=O)(=O)c1cc(-c3cc(C)no3)ccc1C)CCO2`, the Potency was inconclusive: 20.6 µM [cytotoxic, single point]. In the case of `CN1CCN(c2ccc(S(=O)(=O)N3CCOCC3)cc2NC(=O)CSCc2ccccc2)CC1`, the Potency is reported as inconclusive: 2.59 µM [rising, partial curve]. For `Cc1ccccc1C(C)(O)c1cnc(C)n1Cc1ccccc1` (stereo not drawn), the Potency was inconclusive: 20.6 µM [cytotoxic, single point]. In the case of `Cc1cc(C)c(C#N)c(SCC(=O)c2cccs2)n1`, the activity change, negative = cytotoxic is reported as inconclusive: 3.59%. For `O=C(Nc1ccc(O)c(-c2nc3ccccc3s2)c1)c1cc(=O)c2ccccc2o1`, the Potency was inconclusive: 29.1 µM [cytotoxic, single point]. With `Cc1ccc(NC(=O)c2ccc(OC(F)(F)F)cc2)cc1S(=O)(=O)N(C)C` the Potency was active: 23.1 µM.
